## Percent effect of library compounds

Sequences of proteins named here, by UniProt entry; tags and fusion partners are left off. Residues count along the entry.
UniProt P9WPC5, whole entry: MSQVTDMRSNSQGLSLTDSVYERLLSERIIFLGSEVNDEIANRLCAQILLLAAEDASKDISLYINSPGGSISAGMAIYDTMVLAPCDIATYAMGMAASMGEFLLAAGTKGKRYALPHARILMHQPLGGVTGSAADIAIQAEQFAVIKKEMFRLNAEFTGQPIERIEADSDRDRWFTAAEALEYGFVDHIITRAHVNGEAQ
UniProt P9WPC3, whole entry partner: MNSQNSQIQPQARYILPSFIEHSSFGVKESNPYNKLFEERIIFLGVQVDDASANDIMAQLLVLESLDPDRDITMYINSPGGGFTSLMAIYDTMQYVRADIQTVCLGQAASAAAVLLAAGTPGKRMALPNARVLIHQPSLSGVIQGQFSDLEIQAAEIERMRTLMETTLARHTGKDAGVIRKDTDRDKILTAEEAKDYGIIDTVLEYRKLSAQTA
UniProt P9WNZ1, whole entry: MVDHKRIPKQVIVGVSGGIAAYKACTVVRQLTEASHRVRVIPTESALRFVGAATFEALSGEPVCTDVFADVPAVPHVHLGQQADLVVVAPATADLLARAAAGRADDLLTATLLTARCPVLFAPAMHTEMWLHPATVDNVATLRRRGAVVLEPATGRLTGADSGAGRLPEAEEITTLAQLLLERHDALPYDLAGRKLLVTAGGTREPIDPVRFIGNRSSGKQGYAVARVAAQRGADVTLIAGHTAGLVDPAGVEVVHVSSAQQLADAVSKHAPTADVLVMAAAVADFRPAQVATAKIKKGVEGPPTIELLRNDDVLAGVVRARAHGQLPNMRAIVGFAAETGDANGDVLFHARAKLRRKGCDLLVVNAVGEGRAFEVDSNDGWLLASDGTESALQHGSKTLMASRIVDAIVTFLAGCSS
UniProt A4I591, 1-473: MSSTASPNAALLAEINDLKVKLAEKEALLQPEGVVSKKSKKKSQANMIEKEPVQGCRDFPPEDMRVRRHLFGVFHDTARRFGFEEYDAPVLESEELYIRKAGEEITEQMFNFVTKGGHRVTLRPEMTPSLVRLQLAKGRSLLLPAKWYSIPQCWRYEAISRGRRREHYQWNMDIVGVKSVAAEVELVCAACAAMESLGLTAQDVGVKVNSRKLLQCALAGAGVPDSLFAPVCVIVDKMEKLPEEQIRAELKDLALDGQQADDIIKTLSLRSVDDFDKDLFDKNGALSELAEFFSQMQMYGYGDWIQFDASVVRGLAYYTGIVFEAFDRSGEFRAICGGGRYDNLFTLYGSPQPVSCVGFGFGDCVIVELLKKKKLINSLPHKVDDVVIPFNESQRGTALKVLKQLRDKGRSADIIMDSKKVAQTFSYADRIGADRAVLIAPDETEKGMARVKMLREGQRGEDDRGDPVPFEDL

Results are given as percent effect. The record does not define 0% and 100%; most values in the screen are far below 50% and negative numbers occur (in some assays of this library far below -100). Compounds were drawn at random from those tested, without regard to their results. Two or more numbers in one place are separate tests of the same structure; such repeats can differ widely. A dash means the value is not listed here; it may have been measured.

ClpP1P2: 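Protease assay of ClpP1P2, read by the AMC dye that it sets free. Target: ClpP1P2, Mycobacterium tuberculosis (UniProt P9WPC5 and UniProt P9WPC3). Compounds at 50 µM. Direction is inferred from only a few compounds that gave an IC50; most scored high, so higher reads as stronger inhibition. Most other retested compounds had strongly negative values. Size under these conditions: about 69,000 compounds, about 10 of them at 50% or above in at least one test.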
CoaBC: 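Coenzyme A biosynthesis protein CoaBC, Mycobacterium tuberculosis (UniProt P9WNZ1). Enzyme assay of CoaBC with a phosphate dye (Biomol Green) read at 650 nm. Tested at 30 µM. Higher reads as stronger inhibition, judged from the few compounds that gave an IC50. Most strong results did not repeat in a second test. Size under these conditions: about 67,000 compounds, about 40 of them at 50% or above in at least one test.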
Leishmania in macrophages: 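Cell assay of Leishmania donovani living inside macrophages; the read-out is not stated. Concentration: 30 µM. Direction is inferred from retests: higher values go with stronger inhibition. Of about 69,000 compounds tested this way, about 1,000 (1.5%) reached 50% or more in at least one test.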
LiHisRS: 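Histidine-tRNA ligase, Leishmania infantum (UniProt A4I591). Enzyme assay of histidyl-tRNA synthetase; the read-out is not stated. Tested at 30 µM. Higher reads as stronger inhibition (inferred: compounds with an IC50 in retests scored well above the rest). The assay is labelled LdHisRS but filed under L. infantum. Of about 69,000 compounds tested this way, about 410 (0.6%) reached 50% or more in at least one test.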

Compound | ClpP1P2 | CoaBC | Leishmania in macrophages | LiHisRS
CC(C)n1cnc2c1C(C(=O)N1CCCC1)N(S(C)(=O)=O)CC2 (configuration not stated) | -3.355 | - | 24.67 | 25.86
O=C(c1cc(Br)c[nH]1)N1CCN(Cc2ccco2)CC1 | -2.778 | 16 | -18.18 | 28.21
COc1ncccc1CNC(=O)NC1CCOc2ccccc21 (configuration not stated) | 1.418 | 10.46 | 11.89 | 6.154
CCC(C(=O)NCCc1ccn(-c2ccccc2)n1)N1CCCC1=O (configuration not stated) | -6.548 | 7.171 | 14.6 | 10.96
CC(C)Nc1nc2c(c(N(C)C)n1)CCN(Cc1nccn1C)CC2.O=C(O)C(F)(F)F | - | - | 9.889 | -
COCCS(=O)(=O)N(Cc1ccsc1)c1ccccc1 | -2.698 | 0.4016 | -3.455 | 10.45
O=C(O)C(F)(F)F.O=C(O)C(F)(F)F.[H][C@@]12CN(Cc3ccccn3)C[C@]1([H])CN(S(=O)(=O)c1cn(C)cn1)C2 | - | - | 12.62 & 19.48 | -
N#Cc1cc(Br)ccc1NC1CCN(CC(N)=O)CC1 | -18.64 | 2.991 | 8.679 | 15.38
O=C(CC1CCCC1)N1CCC(c2cc3ncccc3c(O)n2)CC1 | -18.72 | 1.854 | 2.791 | 11.72
CC(=O)Nc1cccc(CN2CCN(C3=NCC(C)(C)S3)CC2)c1 | -5.564 | 0.1215 | 27.45 | 10.87
CCN(C)C(=O)[C@H]1C[C@@](CC(C)C)(C(=O)OC)N(C)[C@H]1c1cccnc1 | -1.679 | 2.288 | 11.42 | 4.225
CC(=O)N1CCN(C(=O)Cc2cnc(-c3c(Cl)cccc3Cl)s2)CC1 | -9.683 | -4.337 | -14.75 | -1.099
Cc1nn(C)c2c(=O)n(CC(=O)NCCC3=CCCCC3)ccc12 | -2.715 | -3.753 | 17.24 | 18.48
N#CCCCS(=O)(=O)N1CCCC1CC(=O)c1cccs1 (configuration not stated) | -4.532 | -0.2132 | 16.08 | 11.54
c1cnn(C2CN(c3ncnc4[nH]ccc34)C2)c1 | -2.268 | 2.679 | 16.01 | 12.5
Cc1nc(CN2CCN(CC3CCOC3)Cc3cccnc32)cs1 (configuration not stated) | 2.786 | 2.737 | - | 13.27
COc1ncc(-c2ccc(C(N)=O)cc2)c(OC)n1 | -8.077 | -1.975 | 3.524 | 8.392
Cc1ncsc1CCN(C)C(=O)c1ccc(CN2CCCCC2)cc1 | -3.094 | 2.826 | 0.01274 | 20.16
CN(C)C(=O)c1cc(NC(=O)N2CCCC(C(F)(F)F)C2)ccn1 (configuration not stated) | -6.511 | 3.586 | -2.408 | 5.479
O=C1C(Nc2ncccn2)CCN1c1ccccc1OC(F)F (configuration not stated) | 2.724 | -2.114 | 14.39 | 17.65
COc1cccc(S(=O)(=O)NC(=O)COC2CCCCC2)c1 | 18.35 | -0.9032 | -5.552 | 10.43
CCC(O)Cn1nc(CCSC)nc1-c1ccc2[nH]ccc2c1 (configuration not stated) | 5.168 | -4.516 | -13.77 | 11.84
Cc1ccnc(NCCSc2nccn2C)n1 | 1.405 | 15.2 | 4.579 | 20.51
O=C(Cc1cccnc1)N1CCC2(CC1)CCN(C1CCOCC1)C2 | -16.62 | -11.36 | - | 2.83
CN(C)CCOC1CC2(CCN(c3cnccn3)CC2)c2ccccc21 (configuration not stated) | 8.637 | - | - | 34.19
CC(=O)c1cccc(OCCCC(=O)N(C)Cc2cccc(O)c2)c1 | -14.09 | 5.33 | 32.74 | 11.54
CN1CCCc2cc(-c3cncn3CC(=O)NC(C)(C)C)ccc21.Cl | - | - | 8.135 | -
O=C(O)C(F)(F)F.O=C(O)C(F)(F)F.[H][C@@]12OCCN(C3CCCC3)[C@@]1([H])CC[C@@H]2Oc1cccnc1 | - | - | 2.548 | -
CCc1nc(CN(C)CC(c2cccs2)N2CCOCC2)no1 (configuration not stated) | 15.06 | 1.012 | 1.94 | 27.69
OCCn1cc(CN2CCN(CCOc3ccccc3F)CC2)cn1 | -2.156 | 4.384 | 7.397 | -12.31
COc1cccc(CN2CC[C@H](c3nnc(-c4ccco4)o3)C2)c1 | 1.358 | 5.96 | -12.44 | 1.351
CC(C)CCN1C2(CCN(c3ncccn3)C2)c2ccccc2S1(=O)=O (configuration not stated) | -32.46 | 5.302 | 13.9 | -2.778
COc1ccc(CNC(Cc2ccsc2)c2ccc(C)cn2)cc1OC.Cl (configuration not stated) | - | - | 12 | -
COc1ccc(Cc2ncc3c(n2)CN(C(=O)C2COCCO2)C3)cc1 (configuration not stated) | -5.937 | 6.79 | 32.23 | 8.602
O=C1NCCO[C@H]2CN(C(=O)Cc3cccs3)CC[C@@H]12 | 2.976 | 2.709 | - | 22
Cn1cccc1CN1CCC2(CC1)CC(Oc1cccnc1)C2.O=C(O)C(F)(F)F.O=C(O)C(F)(F)F | - | - | 19.98 | -
N#Cc1ccc(SCCOCCO)c(F)c1 | -2.578 | -4.519 | -5.793 | 13.16
Cc1ccccc1OCCC(=O)OC(C)C(=O)Nc1sccc1C(N)=O (configuration not stated) | -7.928 | -3.084 | 12.89 | -3.774
Cc1ccc(C)c(OCC(O)Cn2ncc3cnn(C)c(=O)c32)c1 (configuration not stated) | 4.473 | 4.519 | 8.388 | 16.67
Cc1cc(C)n(CC2CCCN2CCCS(N)(=O)=O)n1 (configuration not stated) | 33.07 | 4.922 | 13.33 | 29.79
CCOc1ccc(-c2cc(CCN)ccc2OC)cc1 | 1.594 | -41.65 | -5.145 | 12.68
COCC1CC2(CCN(C(=O)c3ccccc3C)CC2)CN1C(C)C.O=C(O)C(F)(F)F (configuration not stated) | - | - | -4.226 | -
COCC1CC2(CCN(C(N)=O)CC2)CN1Cc1csc(C)n1 (configuration not stated) | -8.725 | 2.917 | - | 11.11
CCN1CCCC(O)(CNCc2ccncc2)C1 (configuration not stated) | 6.646 | -22 | -12.57 | -44.12
[H][C@@]12CCN(C[C@@H]1C(=O)Nc1ccccc1)[C@@H](Cn1cc(CCO)nn1)C2 | - | - | -59.6 | -
Cn1cc(CN2CCC3(CCN(c4cnn(C)c4)C3=O)C2)cn1.O=C(O)C(F)(F)F (configuration not stated) | - | - | 10.23 | -
CCc1cnc(N2CCC3(CCN(Cc4cccc(C)c4)C3=O)C2)nc1 (configuration not stated) | -0.08235 | 5.792 | -58.68 | 9.615
COCCn1cc(NC(=O)NCC(c2cccc(F)c2)N(C)C)cn1 (configuration not stated) | -36.86 | 9.252 | 25.82 | 19.64
COc1ccccc1OCC(=O)N1CCC[C@]2(C[C@@H](OC)CO2)C1 | 13.62 | -1.053 | -3.307 & -3.794 | 9.735
O=C(NCCC(O)c1cccs1)c1ccco1 (configuration not stated) | 5.637 | 1.681 | 6.434 | 9.402
Cc1ccc(-c2cc(CNC(=O)N3CCSCC3)on2)cc1 | -3.615 | -0.2551 | 3.569 | 12.73

3 of the entries, repeated:

Compound	ClpP1P2	CoaBC	Leishmania in macrophages	LiHisRS
CN(C)CCOC1CC2(CCN(c3cnccn3)CC2)c2ccccc21 (configuration not stated)	8.637	-	-	34.19
CCc1nc(CN(C)CC(c2cccs2)N2CCOCC2)no1 (configuration not stated)	15.06	1.012	1.94	27.69
O=C1C(Nc2ncccn2)CCN1c1ccccc1OC(F)F (configuration not stated)	2.724	-2.114	14.39	17.65

The values are deposited in ChEMBL (CHEMBL3988442, “University of Dundee, Small-Polar-MMV Screening Library” (2021)).